PubChem BioAssay AID1159578, Peter MacCallum Cancer Centre, 2015
Aim: 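Knock-downs that alter how fast lymphatic endothelial cells migrate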 (primary screen). Cell system: human lymphatic endothelial cells. Reagents: siRNA pool against human genes, 40 nM. Time to read-out: 48 h after transfection. Read-out: 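Cells stained with dye and imaged after a scratch; covered wound area and nuclei counted, duplicates averaged, migration set against mock wells and turned into a robust z-score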. Direction: migration robust z-score: higher = faster migration into the scratch; nuclei per well: higher = more cells in the well. Rule for the call: 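Pools averaging fewer than 3300 nuclei are never called; remaining pools count as changed when migration robust z lies outside -2 to 2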. Calls: active = migration changed; inactive = no migration change, or too few cells.
Here is an unselected part of about 18,000 reagents. About 1,030 of them (5.7%) count as active. 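Inactive calls also include pools with fewer than 3300 nuclei, whose migration was not assessed.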 Raw values vary from plate to plate and are shown uncorrected. Further read-outs or replicates are left out here. No sequences are given here.

{"Gene": "ZNF384 (GeneID 171017)", "migration robust z-score": -0.52, "nuclei per well, duplicate mean": 5900, "Call": "inactive"}
{"Gene": "PLCD4 (GeneID 84812)", "migration robust z-score": 0.36, "nuclei per well, duplicate mean": 6607, "Call": "inactive"}
{"Gene": "IL21 (GeneID 59067)", "migration robust z-score": 0.48, "nuclei per well, duplicate mean": 5288, "Call": "inactive"}
{"Gene": "DLX6 (GeneID 1750)", "migration robust z-score": 0.43, "nuclei per well, duplicate mean": 5170, "Call": "inactive"}
{"Gene": "RAB11FIP5 (GeneID 26056)", "migration robust z-score": 0.04, "nuclei per well, duplicate mean": 5310, "Call": "inactive"}
{"Gene": "SLC38A6 (GeneID 145389)", "migration robust z-score": 0.6, "nuclei per well, duplicate mean": 4944, "Call": "inactive"}
{"Gene": "PURG (GeneID 29942)", "migration robust z-score": -1.11, "nuclei per well, duplicate mean": 5656, "Call": "inactive"}

As entered above:
PLCD4 (GeneID 84812), Call = inactive
Under “nuclei per well, duplicate mean”, SLC38A6 (GeneID 145389) shows 4944

Additional entries follow.
{"Gene": "FBXO34 (GeneID 55030)", "migration robust z-score": 1.19, "nuclei per well, duplicate mean": 5724, "Call": "inactive"}
{"Gene": "SYT14P1 (GeneID 401135)", "migration robust z-score": -0.37, "nuclei per well, duplicate mean": 3028, "Call": "inactive"}
{"Gene": "ARPIN (GeneID 348110)", "migration robust z-score": -3.07, "nuclei per well, duplicate mean": 1708, "Call": "inactive"}
{"Gene": "RPS6KB1 (GeneID 6198)", "migration robust z-score": -1.32, "nuclei per well, duplicate mean": 4389, "Call": "inactive"}
{"Gene": "NCBP2 (GeneID 22916)", "migration robust z-score": -0.28, "nuclei per well, duplicate mean": 4923, "Call": "inactive"}
